Results taken from patent US20120138147A1, “PHOTOELECTRIC CONVERSION ELEMENT, MANUFACTURING METHOD OF THE SAME AND ELECTRONIC EQUIPMENT” (Sony Corporation, priority 2010, published 2012).

What was measured:
[1] = Photoelectric conversion efficiency and internal resistance of dye sensitized photoelectric conversion element, additive in electrolytic solution (Z907 dye); details: additive in MPN electrolytic solution
[2] = Dependence of the effects of the additives on the solvent species of the electrolytic solution
[3] = solvent AN (acetonitrile), cited from earlier work; for Eff (photoelectric conversion efficiency): molecular weight 41.05
[4] = Photoelectric conversion efficiency and internal resistance of dye sensitized photoelectric conversion element, additive in electrolytic solution (Z991 dye)
[5] = solvent AN/VN mixture, apparent molecular weight 47.36
[6] = solvent MAN, molecular weight 71.08
[7] = solvent MPN, molecular weight 85.1

COc1ccccn1 [2-MeO—Py]
Eff (photoelectric conversion efficiency) [1]: 7.4% | Rs (internal resistance) [1]: 34.3 Ω

Brc1cccnc1 [3-Br—Py]
Eff (photoelectric conversion efficiency) [1]: 7.3% | Rs (internal resistance) [1]: 36.9 Ω

COC(=O)c1cccnc1 [3-COOMe—Py]
Eff (photoelectric conversion efficiency) [1]: 7.2% | Rs (internal resistance) [1]: 39.5 Ω

COc1cccnc1 [3-MeO—Py]
Eff (photoelectric conversion efficiency) [1]: 7.8% | Rs (internal resistance) [1]: 34.0 Ω

N#Cc1ccncc1 [4-CN—Py]
Eff (photoelectric conversion efficiency) [1]: 6.7% | Rs (internal resistance) [1]: 41.3 Ω

CCc1ccncc1 [4-Et—Py, 4-ethylpyridine]
ΔEff=Eff(4-Et-Py)−Eff(TBP) ([2]; solvent AN/VN mixture): 0.03 | Eff (photoelectric conversion efficiency) [2, 5]: 8.72 | ΔEff=Eff(4-Et-Py)−Eff(TBP) ([2]; solvent MAN): 0.09 | Eff (photoelectric conversion efficiency) [2, 6]: 8.05 | ΔEff=Eff(4-Et-Py)−Eff(TBP) ([2]; solvent MPN): 0.36 | Eff (photoelectric conversion efficiency) [2, 7]: 8.22 | Eff (photoelectric conversion efficiency) [3]: 3.4 | ΔEff=Eff(4-Et-Py)−Eff(TBP) [3]: −4 | Eff (photoelectric conversion efficiency) [1]: 8.2% | Rs (internal resistance) [1]: 32.1 Ω

CNc1ccncc1 [4-MeNH—Py]
Eff (photoelectric conversion efficiency) [1]: 6.2% | Rs (internal resistance) [1]: 45.6 Ω

COc1ccncc1 [4-MeO—py, 4-methoxypyridine]
Eff (photoelectric conversion efficiency) [1]: 8.4% | Rs (internal resistance) [1]: 31.0 Ω | Eff (photoelectric conversion efficiency) [4]: 9.2% | Rs (internal resistance) [4]: 26.1 Ω

Nc1ccncc1 [4-NH2—Py]
Eff (photoelectric conversion efficiency) [1]: 7.1% | Rs (internal resistance) [1]: 41.7 Ω

Cc1ccncc1 [4-pic]
Eff (photoelectric conversion efficiency) [1]: 7.9% | Rs (internal resistance) [1]: 34.3 Ω

Cc1ccnc(C)c1 [24-Lu, 2,4-lutidine]
Eff (photoelectric conversion efficiency) [1]: 8.3% | Rs (internal resistance) [1]: 29.9 Ω

Cc1ccc(C)nc1 [25-Lu, 2,5-lutidine]
Eff (photoelectric conversion efficiency) [1]: 8.3% | Rs (internal resistance) [1]: 30.5 Ω | Eff (photoelectric conversion efficiency) [4]: 9.2% | Rs (internal resistance) [4]: 27.1 Ω

Cc1cccc(C)n1 [26-Lu, 2,6-lutidine]
Eff (photoelectric conversion efficiency) [1]: 8.3% | Rs (internal resistance) [1]: 30.6 Ω | Eff (photoelectric conversion efficiency) [4]: 9.4% | Rs (internal resistance) [4]: 24.8 Ω

Cc1ccncc1C [34-Lu, 3,4-lutidine]
Eff (photoelectric conversion efficiency) [1]: 8.0% | Rs (internal resistance) [1]: 31.9 Ω

Cc1cncc(C)c1 [35-Lu, 3,5-lutidine]
Eff (photoelectric conversion efficiency) [1]: 7.9% | Rs (internal resistance) [1]: 32.0 Ω

c1ccc2c(c1)ccc1ncccc12 [56-benzoquinoline]
Eff (photoelectric conversion efficiency) [1]: 7.6% | Rs (internal resistance) [1]: 33.3 Ω

Cn1ccnc1 [Mlm, N-methylimidazole]
Eff (photoelectric conversion efficiency) [1]: 8.0% | Rs (internal resistance) [1]: 33.0 Ω

Cn1cnc2ccccc21 [NMB]
Eff (photoelectric conversion efficiency) [1]: 7.9% | Rs (internal resistance) [1]: 35.8 Ω

c1ccncc1 [Py]
Rs (internal resistance) [1]: 33.6 Ω

CC(C)(C)c1ccncc1 [TBP, 4-tert-butylpyridine]
Eff (photoelectric conversion efficiency) [2, 5]: 8.69 | Eff (photoelectric conversion efficiency) [2, 6]: 7.96 | Eff (photoelectric conversion efficiency) [2, 7]: 7.86 | Eff (photoelectric conversion efficiency) [3]: 7.4 | Eff (photoelectric conversion efficiency) [1]: 7.9% | Rs (internal resistance) [1]: 33.8 Ω | Eff (photoelectric conversion efficiency) [4]: 8.6% | Rs (internal resistance) [4]: 34.2 Ω

c1ccc2nc3ccccc3cc2c1 [acridine]
Eff (photoelectric conversion efficiency) [1]: 7.3% | Rs (internal resistance) [1]: 31.3 Ω

c1ccc(-c2ccccn2)nc1 [bpy]
Eff (photoelectric conversion efficiency) [1]: 7.4% | Rs (internal resistance) [1]: 37.2 Ω

c1ccc2cnccc2c1 [isoquinoline]
Eff (photoelectric conversion efficiency) [1]: 7.7% | Rs (internal resistance) [1]: 36.1 Ω

c1cnccn1 [pyrazine]
Eff (photoelectric conversion efficiency) [1]: 6.8% | Rs (internal resistance) [1]: 40.4 Ω

c1ccnnc1 [pyridazine]
Eff (photoelectric conversion efficiency) [1]: 6.5% | Rs (internal resistance) [1]: 32.0 Ω

c1cncnc1 [pyrimidine]
Rs (internal resistance) [1]: 35.5 Ω

c1ccc2ncccc2c1 [quinoline]
Eff (photoelectric conversion efficiency) [1]: 7.6% | Rs (internal resistance) [1]: 32.9 Ω

c1cscn1 [thiazole]
Rs (internal resistance) [1]: 32.5 Ω

Me-pyrazole
Eff (photoelectric conversion efficiency) [1]: 7.5% | Rs (internal resistance) [1]: 32.7 Ω

Like-named read-outs stand apart in the source and are kept apart here.
